Reference: article PMC3278377
These are yes or no findings as the source states them, for the method shown. In cells and extracts the contact can be indirect. Some results given as binding are weak or reduced against the parent protein; the word gives no strength. Where a sequence is shown, tags or fusion partners need not be part of it.

The chains behind the UniProt entries cited, without tags or fusion partners.
UniProt O54943: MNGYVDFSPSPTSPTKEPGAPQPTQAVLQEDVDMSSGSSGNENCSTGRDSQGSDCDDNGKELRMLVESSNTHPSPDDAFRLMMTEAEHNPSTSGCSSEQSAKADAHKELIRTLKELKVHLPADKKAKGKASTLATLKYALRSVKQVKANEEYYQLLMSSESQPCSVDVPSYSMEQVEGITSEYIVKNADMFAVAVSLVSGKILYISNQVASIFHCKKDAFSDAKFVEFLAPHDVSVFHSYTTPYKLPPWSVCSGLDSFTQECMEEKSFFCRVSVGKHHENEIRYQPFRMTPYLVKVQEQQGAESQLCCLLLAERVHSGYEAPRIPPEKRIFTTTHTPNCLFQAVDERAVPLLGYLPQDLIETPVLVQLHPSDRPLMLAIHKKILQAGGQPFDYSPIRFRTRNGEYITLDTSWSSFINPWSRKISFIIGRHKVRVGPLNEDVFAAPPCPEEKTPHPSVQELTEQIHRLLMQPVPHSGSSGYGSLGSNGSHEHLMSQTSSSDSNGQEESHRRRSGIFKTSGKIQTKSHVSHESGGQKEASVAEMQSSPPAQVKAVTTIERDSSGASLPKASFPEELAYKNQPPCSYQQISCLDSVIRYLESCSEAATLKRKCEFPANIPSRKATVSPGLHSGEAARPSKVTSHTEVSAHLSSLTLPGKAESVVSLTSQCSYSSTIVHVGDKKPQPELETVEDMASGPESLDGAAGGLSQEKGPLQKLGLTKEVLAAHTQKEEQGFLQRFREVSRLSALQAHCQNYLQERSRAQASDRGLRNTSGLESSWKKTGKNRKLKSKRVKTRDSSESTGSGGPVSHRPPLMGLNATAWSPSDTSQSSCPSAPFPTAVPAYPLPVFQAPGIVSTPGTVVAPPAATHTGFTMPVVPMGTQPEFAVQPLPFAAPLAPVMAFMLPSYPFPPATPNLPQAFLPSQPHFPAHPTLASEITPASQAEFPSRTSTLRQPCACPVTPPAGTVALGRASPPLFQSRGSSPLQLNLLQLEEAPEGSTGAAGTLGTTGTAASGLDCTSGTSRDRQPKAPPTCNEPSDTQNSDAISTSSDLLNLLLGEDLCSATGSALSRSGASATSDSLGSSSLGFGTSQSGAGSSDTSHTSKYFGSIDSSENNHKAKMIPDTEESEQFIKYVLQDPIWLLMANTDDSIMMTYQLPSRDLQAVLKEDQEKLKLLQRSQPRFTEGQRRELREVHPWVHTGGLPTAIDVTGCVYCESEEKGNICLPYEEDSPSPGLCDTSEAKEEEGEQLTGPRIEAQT
UniProt Q9WTL8: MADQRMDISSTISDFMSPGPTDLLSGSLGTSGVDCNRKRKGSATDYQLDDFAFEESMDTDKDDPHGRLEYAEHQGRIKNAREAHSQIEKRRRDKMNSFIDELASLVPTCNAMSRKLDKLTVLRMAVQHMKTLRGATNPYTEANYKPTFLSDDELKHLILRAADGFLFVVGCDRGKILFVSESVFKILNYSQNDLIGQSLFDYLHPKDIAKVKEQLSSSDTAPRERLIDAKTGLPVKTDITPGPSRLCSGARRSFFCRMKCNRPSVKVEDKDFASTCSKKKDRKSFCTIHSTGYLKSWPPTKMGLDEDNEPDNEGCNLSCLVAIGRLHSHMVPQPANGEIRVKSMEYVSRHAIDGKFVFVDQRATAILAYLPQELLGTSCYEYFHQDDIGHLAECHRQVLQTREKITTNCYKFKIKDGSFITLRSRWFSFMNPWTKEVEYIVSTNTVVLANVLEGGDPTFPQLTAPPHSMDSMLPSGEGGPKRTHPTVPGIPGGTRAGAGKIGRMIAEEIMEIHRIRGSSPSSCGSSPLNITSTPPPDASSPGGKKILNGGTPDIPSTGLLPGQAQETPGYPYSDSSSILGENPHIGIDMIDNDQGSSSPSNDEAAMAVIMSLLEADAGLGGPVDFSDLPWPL

What was measured:
Assay in all cases: co-IP; HEK293 cells co-transfected with epitope-tagged expression plasmids; lysates immunoprecipitated with anti-HA, anti-V5 or anti-Xpress antibodies (protein G beads) and immunoblotted with antibodies against the reciprocal epitope tag; controls with a single construct or empty vector
[1] = target: T1, Xpress-Magel2 (murine Magel2, epitope-tagged, from pcDNA4HisMaxXpressMagel2) (murine) (UniProt Q9QZ04)
T1 sequence: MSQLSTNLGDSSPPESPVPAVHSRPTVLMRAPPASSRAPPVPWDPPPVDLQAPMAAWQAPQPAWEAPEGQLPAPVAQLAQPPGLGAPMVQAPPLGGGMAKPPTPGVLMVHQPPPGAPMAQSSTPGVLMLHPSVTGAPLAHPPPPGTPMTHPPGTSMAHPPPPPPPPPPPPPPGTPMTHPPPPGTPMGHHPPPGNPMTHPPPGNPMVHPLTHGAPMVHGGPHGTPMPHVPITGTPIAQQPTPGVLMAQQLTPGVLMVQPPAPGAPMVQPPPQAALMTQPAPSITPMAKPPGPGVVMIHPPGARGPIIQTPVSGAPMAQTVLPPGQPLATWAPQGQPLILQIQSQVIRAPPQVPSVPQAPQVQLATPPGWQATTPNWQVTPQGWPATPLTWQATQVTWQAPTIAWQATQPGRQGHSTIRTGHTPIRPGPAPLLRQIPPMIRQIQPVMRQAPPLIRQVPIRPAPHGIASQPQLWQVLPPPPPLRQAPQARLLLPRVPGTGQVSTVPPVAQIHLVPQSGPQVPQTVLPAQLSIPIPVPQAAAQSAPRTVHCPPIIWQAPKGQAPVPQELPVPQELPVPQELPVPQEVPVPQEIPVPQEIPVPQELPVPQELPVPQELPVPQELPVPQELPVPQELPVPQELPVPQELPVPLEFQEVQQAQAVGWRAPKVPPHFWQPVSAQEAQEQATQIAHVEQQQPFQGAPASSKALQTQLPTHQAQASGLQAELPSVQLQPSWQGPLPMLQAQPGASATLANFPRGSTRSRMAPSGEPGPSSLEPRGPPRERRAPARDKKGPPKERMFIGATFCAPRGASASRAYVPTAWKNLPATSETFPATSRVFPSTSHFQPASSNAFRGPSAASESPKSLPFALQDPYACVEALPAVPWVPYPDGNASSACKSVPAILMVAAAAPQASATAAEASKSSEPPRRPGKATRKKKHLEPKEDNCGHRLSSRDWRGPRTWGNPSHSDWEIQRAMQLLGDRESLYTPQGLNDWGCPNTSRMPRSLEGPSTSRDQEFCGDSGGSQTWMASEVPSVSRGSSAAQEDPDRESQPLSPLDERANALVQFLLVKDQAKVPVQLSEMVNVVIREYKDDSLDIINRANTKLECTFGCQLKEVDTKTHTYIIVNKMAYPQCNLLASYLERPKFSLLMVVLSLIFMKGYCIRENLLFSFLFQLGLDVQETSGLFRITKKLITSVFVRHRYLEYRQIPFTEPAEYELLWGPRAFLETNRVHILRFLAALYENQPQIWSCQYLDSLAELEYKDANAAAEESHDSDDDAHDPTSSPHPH

[2] = target: V5-Per2 (murine Per2, from pcDNA3.1Per2V5His) (murine) (UniProt O54943)
[3] = target: HA-Bmal1 (murine Bmal1, from pcDNA3HABmal1) (murine) (UniProt Q9WTL8)

Molecule | binding [1] | binding [2] | binding [3]
HA-Bmal1 (murine Bmal1, from pcDNA3HABmal1) (from UniProt Q9WTL8 1-632) | binds | – | –
Xpress-Magel2 (murine Magel2, epitope-tagged, from pcDNA4HisMaxXpressMagel2) (protein, UniProt Q9QZ04 1-1284) MSQLSTNLGDSSPPESPVPAVHSRPTVLMRAPPASSRAPPVPWDPPPVDLQAPMAAWQAPQPAWEAPEGQLPAPVAQLAQPPGLGAPMVQAPPLGGGMAKPPTPGVLMVHQPPPGAPMAQSSTPGVLMLHPSVTGAPLAHPPPPGTPMTHPPGTSMAHPPPPPPPPPPPPPPGTPMTHPPPPGTPMGHHPPPGNPMTHPPPGNPMVHPLTHGAPMVHGGPHGTPMPHVPITGTPIAQQPTPGVLMAQQLTPGVLMVQPPAPGAPMVQPPPQAALMTQPAPSITPMAKPPGPGVVMIHPPGARGPIIQTPVSGAPMAQTVLPPGQPLATWAPQGQPLILQIQSQVIRAPPQVPSVPQAPQVQLATPPGWQATTPNWQVTPQGWPATPLTWQATQVTWQAPTIAWQATQPGRQGHSTIRTGHTPIRPGPAPLLRQIPPMIRQIQPVMRQAPPLIRQVPIRPAPHGIASQPQLWQVLPPPPPLRQAPQARLLLPRVPGTGQVSTVPPVAQIHLVPQSGPQVPQTVLPAQLSIPIPVPQAAAQSAPRTVHCPPIIWQAPKGQAPVPQELPVPQELPVPQELPVPQEVPVPQEIPVPQEIPVPQELPVPQELPVPQELPVPQELPVPQELPVPQELPVPQELPVPQELPVPLEFQEVQQAQAVGWRAPKVPPHFWQPVSAQEAQEQATQIAHVEQQQPFQGAPASSKALQTQLPTHQAQASGLQAELPSVQLQPSWQGPLPMLQAQPGASATLANFPRGSTRSRMAPSGEPGPSSLEPRGPPRERRAPARDKKGPPKERMFIGATFCAPRGASASRAYVPTAWKNLPATSETFPATSRVFPSTSHFQPASSNAFRGPSAASESPKSLPFALQDPYACVEALPAVPWVPYPDGNASSACKSVPAILMVAAAAPQASATAAEASKSSEPPRRPGKATRKKKHLEPKEDNCGHRLSSRDWRGPRTWGNPSHSDWEIQRAMQLLGDRESLYTPQGLNDWGCPNTSRMPRSLEGPSTSRDQEFCGDSGGSQTWMASEVPSVSRGSSAAQEDPDRESQPLSPLDERANALVQFLLVKDQAKVPVQLSEMVNVVIREYKDDSLDIINRANTKLECTFGCQLKEVDTKTHTYIIVNKMAYPQCNLLASYLERPKFSLLMVVLSLIFMKGYCIRENLLFSFLFQLGLDVQETSGLFRITKKLITSVFVRHRYLEYRQIPFTEPAEYELLWGPRAFLETNRVHILRFLAALYENQPQIWSCQYLDSLAELEYKDANAAAEESHDSDDDAHDPTSSPHPH | – | binds | binds
